Consider one sequence from PMC7515719.

Chains of the proteins cited; added tags and fusions are not shown. A line that says so, or that is headed by a name, gives the form on record, which may keep a tag or linker.
XPGn3 wild-type del113-749 (Homo sapiens), one chain, as listed by the source, chain 2 of 2: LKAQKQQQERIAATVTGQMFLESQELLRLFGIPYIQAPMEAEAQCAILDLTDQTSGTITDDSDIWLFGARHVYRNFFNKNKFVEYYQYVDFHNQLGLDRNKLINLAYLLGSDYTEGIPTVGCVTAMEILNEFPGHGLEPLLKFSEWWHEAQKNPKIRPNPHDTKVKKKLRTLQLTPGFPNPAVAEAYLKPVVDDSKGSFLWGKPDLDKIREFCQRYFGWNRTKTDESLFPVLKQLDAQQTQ
XPGn3 wild-type del113-749 (Homo sapiens), one chain, as listed by the source, chain 1 of 2: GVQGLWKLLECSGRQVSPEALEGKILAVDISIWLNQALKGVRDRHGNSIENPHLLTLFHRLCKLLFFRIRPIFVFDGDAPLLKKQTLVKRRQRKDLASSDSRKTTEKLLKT

The exact form of at least one protein or probe is not confirmed. At least one verdict was read from the data and is not stated in words by the source.

In this series the test system is XPGn3 wild-type del113-749 (Homo sapiens). Kind of series: EMSA. The following applies: EMSA: 2.5 uM DNA, 1-8 uM protein, 25 C, 30 min, 7% native PAGE; recombinant protein; protein details: N-terminal His-TEV cleaved. In general terms: Mobility shift assays separate free from complexed probe on a gel.

As to “TACTTGCAGAGTTCGC / GCGAACTCTGCAGAGCA [DNA-2 splayed-arm]”, the binding result was “binds”.
